Assay results taken from PMC11696086.
Results are given in words; binding and its absence hold for the method and conditions named. In cells and extracts the contact can be indirect. Some entries that bind do so weakly or less than the wild type. Where a sequence is shown, tags or fusion partners need not be part of it.

Target: T1, BTS-GFP (Arabidopsis) (UniProt Q8LPQ5)
T1 sequence: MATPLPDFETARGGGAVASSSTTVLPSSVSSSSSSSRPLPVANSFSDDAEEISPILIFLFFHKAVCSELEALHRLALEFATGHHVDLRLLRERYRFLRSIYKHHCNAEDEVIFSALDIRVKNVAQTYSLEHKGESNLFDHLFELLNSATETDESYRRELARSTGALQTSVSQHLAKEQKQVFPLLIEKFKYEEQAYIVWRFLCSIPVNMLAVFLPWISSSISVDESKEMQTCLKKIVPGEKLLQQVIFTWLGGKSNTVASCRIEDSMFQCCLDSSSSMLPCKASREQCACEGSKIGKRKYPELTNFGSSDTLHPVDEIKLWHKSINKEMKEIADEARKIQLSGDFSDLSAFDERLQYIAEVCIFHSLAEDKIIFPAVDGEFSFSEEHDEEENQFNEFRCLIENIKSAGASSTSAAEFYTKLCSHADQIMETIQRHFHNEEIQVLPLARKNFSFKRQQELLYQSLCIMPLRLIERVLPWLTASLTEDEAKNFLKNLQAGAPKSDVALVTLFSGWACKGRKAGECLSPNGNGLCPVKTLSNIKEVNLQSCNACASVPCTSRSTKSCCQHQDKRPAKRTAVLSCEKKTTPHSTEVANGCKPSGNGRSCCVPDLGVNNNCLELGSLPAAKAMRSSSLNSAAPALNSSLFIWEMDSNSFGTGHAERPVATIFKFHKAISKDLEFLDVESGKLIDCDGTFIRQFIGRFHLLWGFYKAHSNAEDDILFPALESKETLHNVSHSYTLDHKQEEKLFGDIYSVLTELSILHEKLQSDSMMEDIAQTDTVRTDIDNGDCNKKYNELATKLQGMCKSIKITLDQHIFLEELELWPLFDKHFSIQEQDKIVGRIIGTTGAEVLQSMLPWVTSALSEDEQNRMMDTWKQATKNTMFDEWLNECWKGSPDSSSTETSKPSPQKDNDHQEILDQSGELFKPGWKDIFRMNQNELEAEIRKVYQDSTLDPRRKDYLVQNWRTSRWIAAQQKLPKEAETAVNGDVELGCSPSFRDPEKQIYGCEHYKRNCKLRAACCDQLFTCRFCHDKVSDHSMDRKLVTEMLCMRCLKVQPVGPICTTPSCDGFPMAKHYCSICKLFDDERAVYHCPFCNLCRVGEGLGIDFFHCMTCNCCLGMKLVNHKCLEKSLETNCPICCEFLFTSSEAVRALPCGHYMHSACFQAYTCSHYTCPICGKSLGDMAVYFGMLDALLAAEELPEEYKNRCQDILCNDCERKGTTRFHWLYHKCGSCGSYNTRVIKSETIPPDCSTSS
Assay: co-IP; N. benthamiana leaves co-expressing BTS-GFP and its partner; immunoprecipitation with GFP antibody-conjugated agarose beads; blots with anti-GFP and anti-Flag

B1: ILR3 co-immunoprecipitated with BTS (construct not described) (protein, UniProt Q9FH37 1-234)
chain: MVSPENANWICDLIDADYGSFTIQGPGFSWPVQQPIGVSSNSSAGVDGSAGNSEASKEPGSKKRGRCESSSATSSKACREKQRRDRLNDKFMELGAILEPGNPPKTDKAAILVDAVRMVTQLRGEAQKLKDSNSSLQDKIKELKTEKNELRDEKQRLKTEKEKLEQQLKAMNAPQPSFFPAPPMMPTAFASAQGQAPGNKMVPIISYPGVAMWQFMPPASVDTSQDHVLRPPVA
In the case of B1, the binding is reported as “binds”.
